# According to PubChem BioAssay AID2003 (Broad Institute, 2009):
# The other results are listed elsewhere or left out. Potency and affinity values are given separately. The source made no clear call on entries shown without one.
# Assay: PubChem AID 2003
# Conditions: H4 cells, SNCA 5'UTR luciferase reporter, luminescence; at 12 µM (top of the series) unless noted
row,Compound,activation
1,Cc1ccc(OCC(=O)Nc2ccc3c(c2)OCO3)c(C)c1,76.2%
2,Nc1nc(Nc2ccccc2F)sc1C(=O)c1ccccc1,-1.1%
3,CCOC(=O)c1sc2nc3n(c(=O)c2c1C)CCCCC3,65.4%
4,O=C(NN/C(=N/S(=O)(=O)c1ccc(Cl)cc1)c1ccccc1)c1cccc(Cl)c1,119%
5,Cc1no[n+]([O-])c1COc1ccccc1/C=N/n1nnnc1N,34.6%
6,Clc1ccc2nc(CSCc3ccccc3)cn2c1,10.1%
7,Cc1ccc(-n2c(C)cc(C(=O)COC(=O)c3ccc[nH]c3=O)c2C)cc1,33.6%
8,O=C(COC(=O)c1cccs1)c1ccc2c(c1)OCCO2,47%
9,O=C(OCc1ccccc1F)c1ccc2c(c1)OCCO2,39.6%
10,CCc1ccc(NC(=O)c2ccccc2NC(=O)C2CCCO2)cc1 (stereo not given),77.1%
11,O=C(NCCSc1ccccc1)c1ccccc1,68%
12,CN(C)/C=N/c1ncc(C(=O)c2ccccc2)s1,65.4%
13,c1csc(C2=NNC(=NC3CCCCC3)SC2)c1,5.4%
14,Cc1nnc(SCC(=O)c2cc(C)n(C3CC3)c2C)s1,12.1%
15,Cc1ccc(Nc2nc(-c3ccncc3)cs2)cc1,150%
16,Cc1ccc(-n2nc3c(n2)/C(=N/O)CC/C3=N\O)cc1,75%
17,COc1ccc(Nc2oc(-c3ccc(F)cc3)nc2C#N)cc1,89.8%
18,CCn1c(=N)n(CC(=O)c2ccc(Cl)c(Cl)c2)c2ccccc21,96.4%
19,Cc1cc(C(=O)O/N=C(\N)c2ccc(C(C)(C)C)cc2)no1,153%
20,O=C(NCCC1=CCCCC1)c1cnc2n(c1=O)CCS2,53.7%
21,Cc1ccc(-c2cc(-c3ccccc3[N+](=O)[O-])[nH]n2)c(O)c1,99.3%
22,c1ccc(N2CCN(c3nc4cc5c(cc4s3)OCCO5)CC2)cc1,19.7%
23,Cc1nn(-c2ccccc2)c(/N=C/c2ccccc2O)c1-c1ccccc1,52.8%
24,O=C(Cc1cccs1)Nc1ccc(-c2nc3ccccc3[nH]2)cc1,3.7%

row,Compound,activation
1,O=C(N/N=C/c1ccc(OCc2ccccc2)cc1)c1ccncc1,68.4%
2,COc1ccc(C2C(=O)c3ccccc3C2=O)c(OC)c1,75.6%
3,CCOC(=O)c1nnc2cc(-c3ccc(Br)cc3)nn2c1C,41.8%
4,CC(=O)c1c(C)[nH]c(C(=O)NCCC2=CCCCC2)c1C,59.9%
5,N#Cc1ccsc1NC(=O)COC(=O)c1ccc2ccccc2c1,81.4%
6,O=C(Nc1cnc2ccccc2c1)C1COc2ccccc2O1 (stereo not given),83.9%
7,Cc1csc(NC(=O)Nc2ccccc2[N+](=O)[O-])n1,27.2%
8,O=C(NNC1=NCCCCC1)Nc1cccc(Cl)c1,65.5%
9,COc1ccc(Oc2nnc(C)c3ccccc23)cc1,68.5%
10,CC(=O)c1cnc2cc(-c3ccc(C)cc3)nn2c1C,31.3%
11,CC1CCC(NC(=O)Cn2ncc3ccccc32)CC1 (stereo not given),67.6%
12,Cc1cc(C2=NNC(=NCCc3ccccc3)SC2)c(C)n1CC1CCCO1 (stereo not given),61.7%
13,Cc1ccccc1Nc1nc(N)nc(CSc2ccc(F)cc2)n1,94.7%
14,N#Cc1c(-c2ccc(Cl)cc2)ccn2nc(C3CCCCC3)nc12,50.1%
15,CCOC(=O)c1sc(Nc2ccccc2Cl)nc1C,53.7%
16,Cc1ccc(-n2ncc(Cl)c2C(=O)NC2CC2)cc1,58.7%
17,COc1ccccc1C(=O)Nc1nnc(SCC(=O)NCC2CCCO2)s1 (stereo not given),84.1% [at 6 µM]
18,O=C(Nc1ccc(N2CCCCC2)cc1)C(Cl)c1ccccc1 (stereo not given),90.6%
19,COc1cc2ccccc2cc1C(=O)Nc1nccs1,140%
20,Cc1csc(NC(=O)c2nc3nccc(C)n3n2)n1,49%
21,O=C(Cc1nc(=O)c2ccccc2s1)Nc1ccccc1,-5.8%
22,O=C(Nc1nccs1)c1cc2c(s1)-c1ccccc1OC2,100%
23,Cc1ccc2c(c1)NC(=O)c1cccnc1N2,77.5%
24,O=C(CC(=O)c1ccccc1)Nc1cccnc1Cl,39.6%

row,Compound,activation
1,Clc1ccccc1-c1nc(-c2ccccc2)n[nH]1,82.3%
2,CCCCSc1ncc(C(=O)OCC)c(N)n1,23.8%
3,C(=C\c1ccccc1)/C=N/Nc1nc2ccccc2s1,178%
4,Cc1ccc2nc(C3CCCCC3)[nH]c2c1,44.6%
5,Cc1ccc(OC(=O)c2cccc([N+](=O)[O-])c2)c(-n2nc3ccccc3n2)c1,58.1%
6,O=c1c(Cl)c(N/N=C/c2ccc(Cl)cc2)cnn1-c1ccccc1,12.9%
7,COCCNC(=O)/C(C#N)=C/c1cc(C)n(C2CCCCC2)c1C,144% [at 6 µM]
8,Cc1ccc(N=Nc2c(N)n(-c3ccccc3)[nH]c2=O)cc1,63.2%
9,Cc1cc(C(=O)NC2CCCCC2)c(C)n1-c1ccc(F)cc1,29.4%
10,CCN1CCN(C(=O)c2cc3c(s2)-c2c(C)cccc2OC3)CC1,44.8%
11,O=C(/C=C1\NCC2c3ccccc3CCN2C1=O)c1ccccc1 (stereo not given),155%
12,Cc1cccn2c1nc(=S)n2C(=O)c1ccco1,154%
13,COC(=O)Cc1c(OC)ccn(CCc2c[nH]c3ccccc23)c1=O,67.2%
14,Cc1nnc2n(c1=O)N=C(c1ccc(Cl)cc1)CS2,64.8% [at 3 µM]
15,Cc1ccc(-n2c(C)cc(C(=O)COC(=O)c3c(C)noc3C)c2C)cc1,52.2%
16,c1ccc(-n2nc3c(ccc4cnnc43)[nH]2)cc1,77.7%
17,CC1(C)Cc2c(sc(NC(=O)Nc3ccccc3)c2C(N)=O)CO1,48.5%
18,CCc1sc(C(=O)Nc2ccc3c(c2)OCCO3)cc1Br,62.2%
19,O=C(NC1CCCC1)c1cc(-c2ccccc2)on1,260%
20,O=C(Nc1ccc(Cl)cc1)c1ccc(OCC2CCCO2)cc1 (stereo not given),65.2%
21,CC(C)(C)c1ccc(NC(=O)Nc2ccc(F)cc2)cc1,-21.6%
22,Cc1ccsc1C(=O)Nc1ccc(OCc2ccccc2)cc1,58.8%
23,C=C(C)CSc1nncn1/N=C/c1ccc(OC)cc1,52%
24,O=C(c1cnn(-c2ccc(Cl)cc2)c1)c1ccccc1O,129% [at 3 µM]

# An excerpt from above in order of heavy-atom count, rising:
row,Compound,activation
4,Cc1ccc2nc(C3CCCCC3)[nH]c2c1,44.6%
2,CCCCSc1ncc(C(=O)OCC)c(N)n1,23.8%
16,c1ccc(-n2nc3c(ccc4cnnc43)[nH]2)cc1,77.7%
15,Cc1ccc(Nc2nc(-c3ccncc3)cs2)cc1,150%
16,Cc1ccc(-n2nc3c(n2)/C(=N/O)CC/C3=N\O)cc1,75%
8,O=C(COC(=O)c1cccs1)c1ccc2c(c1)OCCO2,47%
3,CCOC(=O)c1nnc2cc(-c3ccc(Br)cc3)nn2c1C,41.8%
5,Cc1no[n+]([O-])c1COc1ccccc1/C=N/n1nnnc1N,34.6%
13,Cc1ccccc1Nc1nc(N)nc(CSc2ccc(F)cc2)n1,94.7%
10,CCc1ccc(NC(=O)c2ccccc2NC(=O)C2CCCO2)cc1 (stereo not given),77.1%
15,Cc1ccc(-n2c(C)cc(C(=O)COC(=O)c3c(C)noc3C)c2C)cc1,52.2%
12,Cc1cc(C2=NNC(=NCCc3ccccc3)SC2)c(C)n1CC1CCCO1 (stereo not given),61.7%
4,O=C(NN/C(=N/S(=O)(=O)c1ccc(Cl)cc1)c1ccccc1)c1cccc(Cl)c1,119%

# Next part.

row,Compound,activation
1,O=c1oc(-c2ccccc2)nc2sc3c(c12)CCCC3,89.1%
2,COC(=O)CSc1nc(-c2cccs2)ccc1C#N,79.3%
3,O=c1c2ccccc2nc2oc3ccccc3n12,58.7%
4,COc1ccc2c(c1)C1=NN(/C(C)=C\C(C)=O)C(c3ccccc3)C1CC2 (stereo not given),86.6%
5,Cc1cc2cc(OCc3ccccc3)ccc2n1C,110%
6,CC(=O)Oc1ccc(C)cc1-n1nc2ccccc2n1,87.8%
7,O=C(COC(=O)c1ccc[nH]c1=O)NCCc1ccc(Cl)cc1Cl,78.8%
8,N#Cc1cc2c(nc1SCC(=O)Nc1sc3c(c1C#N)CCC3)CCCC2,55.8%
9,COc1ccc(N2C(=O)CC(Sc3nc(C)cc(C)c3C#N)C2=O)cc1 (stereo not given),60.2%
10,CCc1c(C)nc(SCC(=O)c2cccs2)c(C#N)c1C,44.4%
11,CC(C)c1ccc(-c2cc(C(=O)N3N=C(C(F)F)CC3(O)C(F)F)c3ccccc3n2)cc1 (stereo not given),-23.9%
12,Cc1ccc(C(=O)OCC(=O)c2cc(C)n(CC3CCCO3)c2C)cc1 (stereo not given),27.8%
13,Clc1ccc(-c2csc(Nc3ccccc3)[n+]2Cc2ccco2)c(Cl)c1,87%
14,N/C(=N\OC(=O)/C=C/c1ccccc1Cl)c1cccnc1,112%
15,O=C(COC(=O)c1ccccc1[N+](=O)[O-])c1ccc2c(c1)OCO2,58.8%
16,Cc1cc(C(=O)CSc2nnnn2-c2ccccc2)c(C)n1CC1CCCO1 (stereo not given),78%
17,O=C(c1ccc(Cl)s1)N1CCc2ccccc21,79.4%
18,Cc1cc(=O)oc2cc(NC(=O)c3ccccc3Cl)ccc12,98.9%
19,O=C1CCCc2nc3c(cc21)C(O)Oc1c-3ccc2ccccc12 (stereo not given),103%
20,CCOC(=O)CSc1nc(-c2ccncc2)ccc1C#N,51.5%
21,Cc1ccc(NC(=O)CN2CCCCCC2)c(Br)c1,95.9%
22,CCOC(=O)c1cnc(SCC(=O)c2ccccc2)nc1N,100% [at 6 µM]
23,Cc1ccc(C(=O)Nc2ccc(C(F)(F)F)n(C)c2=O)cc1,51.8%
24,Cn1c(=O)c(/C=C/c2ccccc2)nc2ccccc21,62.2%

# Taken from above:
# Under activation, `COc1ccc(Nc2oc(-c3ccc(F)cc3)nc2C#N)cc1` reads 89.8%
# Under activation, `c1ccc(-n2nc3c(ccc4cnnc43)[nH]2)cc1` reads 77.7%
# Under activation, `N#Cc1cc2c(nc1SCC(=O)Nc1sc3c(c1C#N)CCC3)CCCC2` reads 55.8%

# Next part:

row,Compound,activation
1,Cc1ccc2c(CC(=O)N3CCc4ccccc43)coc2c1,44%
2,Fc1ccc(N2CCN(c3cnc4ccccc4n3)CC2)cc1,127%
3,O=C(NNC(=O)c1cc2ccccc2cc1O)c1cccs1,23.7% [at 6 µM]
4,CCOC(=O)c1sc(=NC(=O)c2ccc(C)c(C)c2)n(C)c1C,88.5%
5,COc1ccc(-n2nnnc2-c2nc3ccccc3s2)cc1,-31.3%
6,Cc1cccnc1NC(=S)NC(=O)c1cccs1,222%
7,Clc1c(CSc2nc3ccccc3o2)nc2ccccn12,-12.7%
8,COc1ccc2c(COC(=O)c3n[nH]c4ccccc34)cc(=O)oc2c1,57.3%
9,O=C(Nc1cnc2ccccc2c1)N1CCCCC1,15.8%
10,O=C(Nc1ccc(Br)cc1)c1ccc(CSC2=NCCS2)cc1,26.3%
11,Cc1ccccc1OCc1nnc2c3cnn(C)c3ncn12,42.9%
12,NC(=O)C1=C[C@H](C2CCCCC2)C[C@H](OCc2ccc(CO)cc2)O1,49.3%
13,Cc1cc(C)c2nc(-n3nc(C)cc3N)cc(C)c2c1,63.8%
14,O=C(N/N=C/c1sc(=O)n(-c2ccccc2)c1Cl)c1ccccc1,26.8%
15,CCCCn1nnc(N(C(=O)c2cccs2)C(=O)c2cccs2)n1,75.8%
16,O=C(N/N=C/c1ccccc1O)NC12CC3CC(CC(C3)C1)C2,37%
17,COc1ccc(Cn2c(C3CC3)nc3ccc(NC(=O)C4CC4)cc3c2=O)cc1,22.5%
18,CCOc1cc(/C=N/NC(=O)Nc2ccccc2)ccc1O,140%
19,CC(C)(C)c1ccc(C(=O)NC(=S)N2CCOCC2)cc1,63.8%
20,CCOC(=O)c1sc(=NC(=O)/C=C/c2cccs2)n(C)c1C,132%
21,CC1(C)CC(=O)c2cnc(N3CCc4ccccc4C3)nc2C1,123% [at 6 µM]
22,O=[N+]([O-])c1ccc2nc(-c3ccc(Cl)cc3)n(OCc3ccccc3)c2c1,31.6%
23,CSc1nsc(N/N=C/c2ccc3c(c2)OCO3)c1C#N,217%
24,C/C(=N\Nc1ccc(C(=O)O)cc1)c1nc2ccccc2n1C,85.5%
